Patent US20220112295A1 (Novo Nordisk, published 2022)
Positions count from the first letter of the chain named. These are yes or no findings as the source states them, for the method shown. Some entries that bind do so weakly or less than the wild type. For some of these results: Sequences can lack the tags named with a protein.

How the values were obtained:
rhCD30L (human) = target: T1, rhCD30L (human) (UniProt P32971); test: binding competition assay, labeled against unlabeled antibodies
T1 sequence: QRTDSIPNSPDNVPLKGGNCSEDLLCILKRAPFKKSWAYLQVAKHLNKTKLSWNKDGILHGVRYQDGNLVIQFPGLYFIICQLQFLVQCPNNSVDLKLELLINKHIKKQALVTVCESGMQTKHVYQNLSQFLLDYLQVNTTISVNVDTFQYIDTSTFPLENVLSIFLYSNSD

[1] = target: native cynomolgus monkey CD30L on activated T cells (cynomolgus monkey); test: screening
[2] = target: T2, native human CD30L expressed on Ramos cells (human) (UniProt P32971); test: FACS Kd method on Ramos cells
T2 sequence: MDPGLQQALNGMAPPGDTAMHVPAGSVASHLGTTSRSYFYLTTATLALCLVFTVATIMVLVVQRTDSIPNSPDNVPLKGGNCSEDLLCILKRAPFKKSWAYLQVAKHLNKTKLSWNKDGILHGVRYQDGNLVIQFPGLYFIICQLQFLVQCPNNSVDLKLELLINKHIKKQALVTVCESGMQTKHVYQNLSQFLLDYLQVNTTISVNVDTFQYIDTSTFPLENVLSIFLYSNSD

[3] = target: T2, native human CD30L expressed on Ramos cells (human); test: screening, FMAT and FACS
[4] = target: T3, FLAG-hCD30L-EC (N153Q) treated with PNGaseF (human); test: HX-MS, 6 uM hCD30L with 6.6 uM mAb
T3 sequence: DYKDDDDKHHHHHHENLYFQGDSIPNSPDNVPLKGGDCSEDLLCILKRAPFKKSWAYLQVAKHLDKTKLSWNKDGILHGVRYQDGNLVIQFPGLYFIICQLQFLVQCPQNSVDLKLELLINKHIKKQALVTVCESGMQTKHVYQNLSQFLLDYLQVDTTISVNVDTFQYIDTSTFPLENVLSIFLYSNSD

[5] = target: T4, His-hCD30L-EC treated with PNGaseF (human) (UniProt P32971); test: HX-MS, 6 uM hCD30L with 6.6 uM mAb
T4 sequence (chain, N-glycosylations remain at N153 and N201 after PNGaseF (Table 7)): T1 sequence with N19D, N47D

[6] = target: T5, human CD30L-His10 trimer (R&D Systems 1028-CL) (human) (UniProt P32971); test: Biacore sandwich, hCD30L-His10 trimer captured on A1-FAB, antibody at 75 nM
T5 sequence: T1 sequence

Measured: binding

B1: Antibody E (antibody, V domains shown)
VH: QVQLQESGPRLVKPSETLSLTCTVSGGSITNNYWSWIRQPAGKGLEWIGRVYSSGLTNYKPSLKSRVTMSVDTSKNQFSLRLNSVTAADTAVYYCARERATVTTRYHYDGMDVWGQGTSVTVSS
VL: QSALTQPASVSGSPGQSITISCTGSSSDIGTYNYVSWYQQYPGKAPELMIYEVNNRPSGVSDRFSGSTSGNTASLTISGLQANDEADYYCSSYSSSSTWVFGGGTKLTVL
notes: also called mAb E
binds: rhCD30L (human) | [1]

B2: Antibody A (antibody, V domains shown)
VH: QVQLQESGPGLVKPSETLSLTCTVSGGSISSYIWSWIRQPAGKGLEWIGRIYASGNTNYNPSLKSRVTMSVDTSKNQFSLKLSSMTAADTAVYYCARDYRVAGTYYYYYGLDVWGQGTTVTVSS
VL: QSALTQPASVSGSPGQSITISCTGTSSDVGVYDYVSWYQQHPGKAPKLMIYEVSNRPSGVSNRFSGSKSGNTASLTISGLQTEDEADYYCSSYTSRSTWVFGGGTKLTVL
notes: Human antibody (XenoMouse); also called mAb A; anti-hCD30L A
binds: rhCD30L (human) | [1] | [2] | [3]

B3: Antibody B (antibody, V domains shown)
VH: QVQLQESGPGLVKPSETLSLTCTVSGGSISSYYWTWIRQPAGKGLEWIGRIYTSGITNYNPSLKSRVTMSVDTSKNQFSLKLSSVTAADTAVYYCARERVVGASRYYYYGVDVWGQGTTVTVSS
VL: B2 VL with V31L, D33N, G43D, Y51F, S54N, K68N, T82A, R96S
notes: also called mAb B
not listed: [5] | [6]
binds: all other assays above

B4: Antibody D (antibody, V domains shown)
VH: QVQLQESGPGLVKPSETLSLTCTVSGGSISSYSWSWIRQPAGKGLEWIGRTSTSGRNNYNPSLKSRVTMSVDTSKNQFSLKLNSVTAADTAVYYCARDFTIAARRYYYYGMDVWGQGTTVTVSS
VL: B2 VL with V29I, V31L, D33N, M49I, S54I, K68E, T82A, D87N, R96S
notes: also called mAb D
binds: rhCD30L (human) | [1]

B5: Antibody F (antibody, V domains shown)
VH: QVQLQESGPGLVKPSETLSLTCTVSGGSISSYYWSWIRQPAGKGLEWIGRIFASGSTNYNPSLRSRVTMSRDTSKNQFSLKLSSVTAADTAVYYCAKERVGVQDYYHYSGMDVWGQGTTVTVSS
VL: B2 VL with V31L, D33N, H41Q, N55K, K68T, T82A, E83D, Y89S, R96S
notes: also called mAb F
binds: rhCD30L (human) | [1]

B6: Antibody A1 (antibody, V domains shown)
VH: B2 VH with M69I
VL: B2 VL
notes: also called mAb A1; Antibody A1 IgG2
binds: [5]

B7: Antibody C (antibody, V domains shown)
VH: B3 VH
VL: QSALTQPASVSGSPGQSITISCTGTSSDIGLYDYVSWYQQHPDRAPKLIIFEVNNRPSGVSYRFSGSNSGNTASLTISGLQAEDEADYYCSSYTSSSTWVFGGGTKLTVL
notes: also called mAb C
not listed: [5]
binds: all other assays above
